Experimental findings from patent publication US20130095098A1 (UCB, published 2013) are described below.

Amino acid sequences for entries named in this document (tags omitted). Residues count along the entry.
UniProt Q15116, residues 25-288: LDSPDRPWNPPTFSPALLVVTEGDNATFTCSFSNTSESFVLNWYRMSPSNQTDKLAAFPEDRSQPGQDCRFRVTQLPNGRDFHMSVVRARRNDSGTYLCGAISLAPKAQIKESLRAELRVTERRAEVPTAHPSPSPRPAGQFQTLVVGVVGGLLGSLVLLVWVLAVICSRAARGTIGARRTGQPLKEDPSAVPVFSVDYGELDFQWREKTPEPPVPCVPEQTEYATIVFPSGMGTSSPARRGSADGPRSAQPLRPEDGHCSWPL

This assay concerns the target human PD-1 (Programmed Death 1), full-length, expressed on transiently transfected HEK293 cells (human) (UniProt Q15116). Briefly: flow cytometry on HEK293 cells transiently transfected with human PD-1; FITC mouse anti-human IgG secondary. A general note: In flow cytometry, cells or beads pass a laser one at a time.

Results are given in words; binding and its absence hold for the method and conditions named. Some entries that bind do so weakly or less than the wild type.

B1: antibody CA051-00948 (948 murine parental; cloned recombinant antibody derived from hybridoma Clone 10) (antibody, IgG1, V domains shown)
VH: DVQLQESGPGLVKPSQSLSLTCTVTGYSITSDYAWNWIRQFPGNKLEWMGYINYSGSTSYNPSLKSRISITRDTSKNQFFLQLNSVTTEDTATYYCARWIGSSAWYFDVWGAGTTVTVS
VL: DVLMTQTPLSLPVSLGDQASISCRSGQNIVHSNGNTYLEWYLQKPGQSPKLLIYKVSNRFFGVPDRISGSGSGTDFTLKISRVEAEDLGVYFCFQGSHVPFTFGSGTKLEIK
notes: also called Ab948
Regarding B1, the binding entry is on record as “binds”.
